Results: PubChem BioAssay AID2685 (National Center for Advancing Translational Sciences (NCATS), 2010)
This is one part of the list. Further columns of the screen follow, without active or inactive calls. The list favours compounds with an active or inconclusive main result. Potencies come from curve fits of mixed quality, noted in brackets.

Assay: qHTS Assay for Lipid Storage Modulators in Drosophila S3 Cells;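 on cell number change: cells counted by Cell Tracker Red CMTPX staining in the red channel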
Conditions: BODIPY lipid droplet fluorescence, 18-24 h; for cell number change: measured here: cell count max response, cells fed with added oleic acid
Method in brief: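 Laser-scanning cytometry quantifies lipid droplet accumulation (500–530 nm total intensity; droplet/cell object ratio) in oleic acid-fed (400 uM added) Drosophila S3 cells treated with a concentration series. 20 uM Triacsin C defined 100% inhibition.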

[1] = measured here: lipid fluorescence (Fed channel) AC50, cells fed with added oleic acid
[2] = measured here: cell number channel AC50, cells fed with added oleic acid

Row | Compound | AC50 [1] | cell number change | AC50 [2]
1 | COc1ccc(CCNC(=O)Cn2nc(C)n3nc(-c4ccccc4)cc3c2=O)cc1OC | 18.4 µM [falling, single point] | – | –
2 | CCOC(=O)C(C)Oc1ccc2c(CC)cc(=O)oc2c1C (stereo not given) | 0.231 µM [falling, full curve, poor fit] | 13% | –
3 | O=C1CC(c2ccc(F)cc2)C(n2cncn2)C(O)=C1C1NCCc2ccccc21 (stereo not given) | 0.00461 µM [falling, full curve, poor fit] | -21.3% | 0.00731 µM [falling, full curve, poor fit]
4 | Cc1noc(NS(=O)(=O)c2ccc(N/C=C\C(=O)c3ccncc3)cc2)c1C | – | 6.49% | –
5 | O=C1NC(c2cccs2)C(C(=O)c2ccccc2)C(O)(C(F)(F)F)N1 (stereo not given) | 20.6 µM [rising, single point] | -4.16% | –
6 | COc1cc2cc(C(=O)N3CCOCC3)cc(-c3ccc(C)cc3)c2cc1OC | 20.6 µM [falling, partial curve] | -98.8% | 23.1 µM [falling, partial curve]
7 | CCNC(=O)/C(C#N)=C/c1c(N2CCN(c3ccccc3)CC2)nc2c(C)cccn2c1=O | – | -17.2% | –
8 | O=C(C1CCN(S(=O)(=O)c2ccccc2)CC1)N1CCN(Cc2ccccc2)CC1 | – | 2.31% | –
9 | O=C(Nc1ccc(Cl)c(Cl)c1)N1N=CCC1c1ccccc1 (stereo not given) | 23.1 µM [rising, partial curve] | 113% | 14.6 µM [rising, partial curve]
10 | COc1ccc2oc(C(=O)N3CCCc4ccccc43)c(C)c2c1 | – | 99.2% | 11.6 µM [rising, partial curve]
11 | COCCNC(=O)[C@H]1C[C@@H]1[C@H](NP(=O)(c1ccccc1)c1ccccc1)c1ccccc1 | 3.26 µM [rising, single point] | 28.9% | –
12 | CC(=O)NC1=NC(=O)/C(=C/N2CCOCC2)S1 | – | -34.4% | 29.1 µM [falling, single point]
13 | CC1(NC(=O)c2cc(Cl)nc3ccccc23)CCS(=O)(=O)C1 (stereo not given) | 0.13 µM [falling, full curve, poor fit] | -2.64% | 0.146 µM [falling, full curve, poor fit]
14 | CCCCCCCCn1c2c(c(=N)c3c1CCC3)CCCC2 | 3.66 µM [falling, full curve] | -68.6% | 2.59 µM [falling, full curve]
15 | Cc1nnc(SCC(C)C)[nH]c1=O | 3.26 µM [falling, partial curve] | -8.13% | 2.06 µM [falling, partial curve]
16 | O=C(NCCc1ccccc1)c1ccc2c(=O)[nH]c3c(C(=O)NCC4CCCO4)sc(=S)n3c2c1 (stereo not given) | 0.82 µM [falling, full curve] | -43.3% | 0.651 µM [falling, full curve]
17 | CC1CCN(CCCN2C(=O)C3C(C(=O)Nc4ccc(Cl)cc4)C4C=CC3(O4)C2C(=O)NC2CCCCC2)CC1 (stereo not given) | 2.59 µM [falling, partial curve, poor fit] | -5.24% | –
18 | O=C(Nc1ccc(Cl)cc1)c1ccc(CN2CCc3ccccc3C2)cc1 | 0.58 µM [rising, single point] | -28.3% | –
19 | CCOC(=O)CSc1nnc(CNc2ccc(F)cc2)o1 | 29.1 µM [falling, single point] | -8.86% | –
20 | COc1ccccc1C(=O)C1CCCN(C(=O)c2ccccn2)C1 (stereo not given) | 0.326 µM [falling, partial curve, poor fit] | -7.05% | –

Some of the entries so far, in markdown.

| Row | Compound | AC50 [1] | cell number change | AC50 [2] |
| --- | --- | --- | --- | --- |
| 4 | Cc1noc(NS(=O)(=O)c2ccc(N/C=C\C(=O)c3ccncc3)cc2)c1C | – | 6.49% | – |
| 12 | CC(=O)NC1=NC(=O)/C(=C/N2CCOCC2)S1 | – | -34.4% | 29.1 µM [falling, single point] |
| 13 | CC1(NC(=O)c2cc(Cl)nc3ccccc23)CCS(=O)(=O)C1 (stereo not given) | 0.13 µM [falling, full curve, poor fit] | -2.64% | 0.146 µM [falling, full curve, poor fit] |
| 15 | Cc1nnc(SCC(C)C)[nH]c1=O | 3.26 µM [falling, partial curve] | -8.13% | 2.06 µM [falling, partial curve] |
| 20 | COc1ccccc1C(=O)C1CCCN(C(=O)c2ccccn2)C1 (stereo not given) | 0.326 µM [falling, partial curve, poor fit] | -7.05% | – |

Next part:

Row | Compound | AC50 [1] | cell number change | AC50 [2]
21 | Cc1ccc(CN(Cc2cccnc2)C(=S)Nc2cc(Cl)ccc2C)cc1 | 0.291 µM [falling, partial curve, poor fit] | – | –
22 | O=[N+]([O-])c1ccc(S(=O)(=O)N2CCN(c3ccnc4cc(Cl)ccc34)CC2)cc1 | – | -14.4% | –
23 | Cn1c(=O)c2ncn(CC(=O)N/N=C/C=C/c3ccccc3)c2n(C)c1=O | 0.0651 µM [falling, partial curve] | – | –
24 | Clc1ccc2c(c1)C1OCCC1C(c1ccco1)N2 (stereo not given) | 20.6 µM [rising, single point] | -5.89% | –
25 | CCCn1c(SCC(=O)Nc2ccccc2N2CCOCC2)nc2c1c(=O)n(C)c(=O)n2C | 20.6 µM [rising, single point] | 31.8% | 23.1 µM [rising, single point]
26 | O=C(CSc1ccc2ccccc2c1)NCc1cccs1 | 1.84 µM [rising, full curve, poor fit] | 11.6% | –
27 | Cn1c(-c2ccc([N+](=O)[O-])cc2)nc2ccccc21 | 6.51 µM [falling, single point] | 3.31% | –
28 | COc1ccc(NS(=O)(=O)c2cccc(C(=O)NNC(=O)CN3C(=O)NC(C)(C)C3=O)c2)cc1 | 3.66 µM [falling, full curve] | -29.8% | 0.13 µM [falling, full curve, poor fit]
29 | Cn1c(=O)c(C(=O)COC(=O)c2cc(-c3ccco3)nc3ccccc23)c(N)n(Cc2ccccc2)c1=O | 3.66 µM [rising, full curve] | -4.14% | –
30 | COc1ccc(OC)c(N=Cc2c(O)[nH]c3ccccc23)c1 | 23.1 µM [falling, single point] | -68.7% | 18.4 µM [falling, partial curve]
31 | COc1cccc2c1OCC(CN1CCN(CCC(C)C)C(CCO)C1)=C2 (stereo not given) | 25.9 µM [falling, single point] | -14.3% | –
32 | CSCc1c(C(=O)Nc2ccccc2N2CCOCC2)oc2ccccc12 | 0.92 µM [rising, full curve, poor fit] | 2.89% | –
33 | CCN(CC)c1ccc(CNc2nc3ccccc3n2CCN2CCCCC2)cc1 | 22.4 µM [falling, single point] | -64.3% | 35.5 µM [falling, partial curve]
34 | Brc1ccc(-c2nnc(Cc3ccccc3)o2)cc1 | – | 10.2% | –
35 | COc1ccc(-c2csc(NC(=S)NC(=O)c3cccs3)n2)cc1OC | 0.116 µM [rising, single point] | – | –
36 | CCN(c1ccccc1)S(=O)(=O)c1ccc(NC(=O)c2ccco2)cc1 | 16.4 µM [falling, single point] | -27.2% | –
37 | CC1(C)C2CCC1(CS(=O)(=O)NCc1ccc(S(N)(=O)=O)cc1)C(=O)C2 (stereo not given) | 0.184 µM [falling, single point] | 12.9% | –
38 | CCSc1ncnc2sc3c(c12)CCC3 | – | 3.32% | –
39 | N#Cc1ccsc1NC(=O)CN1CCN(S(=O)(=O)c2ccccc2C(F)(F)F)CC1 | 1.84 µM [falling, full curve] | -41.4% | 1.84 µM [falling, full curve]
40 | CCOC(=O)c1nnn(-c2ccc([N+](=O)[O-])cc2[N+](=O)[O-])c1C | – | -23.5% | –

Row | Compound | AC50 [1] | cell number change | AC50 [2]
41 | C=CCn1c(=O)c2ccccc2n2c(SCC(=O)NC(C)C)nnc12 | – | 4.17% | –
42 | CCOCCCNC(=O)CSc1ccccc1 | 0.146 µM [falling, full curve] | – | –
43 | Cc1ccc(-c2csc(NC(=O)c3ccccc3F)c2C(=O)O)cc1 | 3.66 µM [rising, full curve] | 15.6% | –
44 | CCCNC(=O)CSc1nnc(C)s1 | 0.0291 µM [falling, full curve, poor fit] | – | 0.82 µM [rising, full curve, poor fit]
45 | CCOC(=O)Cn1c(Br)nc2c1c(=O)[nH]c(=O)n2C | 5.17 µM [falling, partial curve, poor fit] | 38% | 29.1 µM [rising, single point]
46 | CCOC(=O)N1CCN(C(=S)NC(=O)c2c(-c3c(Cl)cccc3Cl)noc2C)CC1 | – | – | 2.31 µM [rising, partial curve]
47 | COC(=O)c1ccc(C(=O)OC)c(NC(=O)CN2CCN(c3ccccc3OC)CC2)c1 | 20.6 µM [rising, partial curve, poor fit] | 73.5% | 0.517 µM [rising, full curve]
48 | Nc1ccc(-c2cnc(-c3ccc(N)cc3)nc2)cc1 | – | -18.1% | –
49 | Nc1nc(-c2ccc(Cl)cc2)nn1C(=O)c1cccnc1 | 0.116 µM [rising, full curve, poor fit] | -4.22% | –
50 | CCOC(=O)N1CCN(c2ccc3nnnn3n2)CC1 | – | 23.1% | 0.517 µM [falling, single point]
51 | Cc1ccc(SCC(=O)c2cc(C)c(O)c(C)c2)cc1 | 29.1 µM [falling, single point] | -41.1% | 20.6 µM [falling, single point]
52 | CCCCc1nnc(NC(=O)c2ccccc2OCc2c(C)noc2C)s1 | – | -30.1% | 0.058 µM [falling, full curve, poor fit]
53 | CCOc1ccc(NC(=O)CN(c2ccc(C)cc2)S(=O)(=O)c2c(C)nn(C)c2C)cc1 | – | -17.2% | –
54 | Cc1cc(Cn2nc(C(=O)NCc3cccc(Br)c3)cc2-c2ccccc2)on1 | 1.64 µM [falling, partial curve] | – | –
55 | CNc1ccccc1C(C)(C)c1cc(-c2ccc(F)cc2)no1 | 29.1 µM [falling, single point] | -19.8% | –
56 | O=C(CCCC(=O)c1ccccc1)Nc1ccc(O)cc1 | 6.51 µM [falling, single point] | -7.94% | –
57 | COc1ccc(-c2cc3ccccc3[nH]2)cc1 | 0.82 µM [falling, full curve] | -20% | –
58 | CC(NC(=O)COc1ccccc1-c1ccccc1)c1ccccc1 (stereo not given) | – | 8.31% | –
59 | COc1cccc(OC)c1C(=O)NC(=O)NNc1cc(C(F)(F)F)cc(C)n1 | 6.51 µM [rising, single point] | 10.3% | –
